These are yes or no findings as the source states them, for the method shown. Some results given as binding are weak or reduced against the parent protein; the word gives no strength.
Tests used:
[1] = molecular target: EphA2 tagged at the C-terminus with mTURQ (donor) or EYFP (acceptor), transiently expressed in HEK293 cells (UniProt P29317); test: quantitative FRET between EphA2-mTURQ and EphA2-EYFP in HEK293 cells, no ligand; self-association, monomer-dimer fit
[2] = molecular target: EphA2 tagged at the C-terminus with mTURQ (donor) or EYFP (acceptor), transiently expressed in HEK293 cells (UniProt P29317); test: FRET efficiency against total receptor concentration, EphA2-mTURQ and EphA2-EYFP co-expressed in HEK293T cells, untreated
[3] = molecular target: EphA2 tagged at the C-terminus with mTURQ (donor) or EYFP (acceptor), transiently expressed in HEK293 cells (UniProt P29317); test: FRET efficiency against total receptor concentration, EphA2-mTURQ and EphA2-EYFP co-expressed in HEK293T cells, saturating dimer (2)
[4] = molecular target: EphA2 tagged at the C-terminus with mTURQ (donor) or EYFP (acceptor), transiently expressed in HEK293 cells (UniProt P29317); test: FRET efficiency against total receptor concentration, EphA2-mTURQ and EphA2-EYFP co-expressed in HEK293T cells, saturating dimer (5)
[5] = molecular target: EphA2 tagged at the C-terminus with mTURQ (donor) or EYFP (acceptor), transiently expressed in HEK293 cells (UniProt P29317); test: quantitative FRET between EphA2-mTURQ and EphA2-EYFP in HEK293 cells with saturating dimer (2); self-association, higher order oligomer fit
[6] = molecular target: EphA2 tagged at the C-terminus with mTURQ (donor) or EYFP (acceptor), transiently expressed in HEK293 cells (UniProt P29317); test: quantitative FRET between EphA2-mTURQ and EphA2-EYFP in HEK293 cells with saturating dimer (5); self-association, higher order oligomer fit

Amino acid sequences for entries named in this document (tags omitted). Residues count along the entry.
UniProt P29317, residues 24-976: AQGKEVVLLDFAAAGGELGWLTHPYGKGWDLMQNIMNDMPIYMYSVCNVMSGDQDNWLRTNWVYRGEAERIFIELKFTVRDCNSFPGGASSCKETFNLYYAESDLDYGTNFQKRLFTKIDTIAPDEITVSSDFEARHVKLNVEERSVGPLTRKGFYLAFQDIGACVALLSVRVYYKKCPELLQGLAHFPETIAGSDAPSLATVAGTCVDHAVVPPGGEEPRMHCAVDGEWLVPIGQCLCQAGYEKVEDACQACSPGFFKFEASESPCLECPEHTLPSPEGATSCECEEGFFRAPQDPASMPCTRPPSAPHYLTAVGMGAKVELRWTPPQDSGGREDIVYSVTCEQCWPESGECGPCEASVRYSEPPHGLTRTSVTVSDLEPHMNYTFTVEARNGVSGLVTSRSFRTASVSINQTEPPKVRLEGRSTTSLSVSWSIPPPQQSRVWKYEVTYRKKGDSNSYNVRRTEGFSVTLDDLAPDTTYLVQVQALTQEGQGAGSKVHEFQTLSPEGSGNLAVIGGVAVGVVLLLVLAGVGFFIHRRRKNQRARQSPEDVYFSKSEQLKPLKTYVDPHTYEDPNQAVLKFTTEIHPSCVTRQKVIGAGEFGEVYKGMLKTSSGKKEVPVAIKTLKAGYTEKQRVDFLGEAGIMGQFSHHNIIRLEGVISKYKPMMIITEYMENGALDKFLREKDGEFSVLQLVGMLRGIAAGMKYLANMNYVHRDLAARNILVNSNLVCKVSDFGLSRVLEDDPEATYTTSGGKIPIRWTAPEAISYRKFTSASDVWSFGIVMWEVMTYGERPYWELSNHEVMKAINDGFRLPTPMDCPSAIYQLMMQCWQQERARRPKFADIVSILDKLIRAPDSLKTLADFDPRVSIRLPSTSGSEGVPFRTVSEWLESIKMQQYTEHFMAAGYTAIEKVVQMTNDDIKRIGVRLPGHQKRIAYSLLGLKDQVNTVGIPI

Measured: binding

EphA2 tagged at the C-terminus with mTURQ (donor) or EYFP (acceptor), transiently expressed in HEK293 cells (from UniProt P29317 24-976) (receptor)
binds: all assays above
